From paper PMC8219378, “A putative structural mechanism underlying the antithetic effect of homologous RND1 and RhoD GTPases in mammalian plexin regulation” (eLife, 2021) come the findings set out here.

This test concerns the target mouse plexin B2 RBD (Rho-GTPase-binding domain), as found in the crystal (mouse) (UniProt B2RXS4). Briefly: crystal structure; plexin B2 (1274-1842) and GMP-PNP-loaded RhoD mixed at 1:1 molar ratio, 6 mg/mL; crystals grown for over a month at 20 C in 0.2 M MgCl2, 22% PEG3350, 100 mM MIB pH 6.8; molecular replacement, 3.1 A; two RhoD and two RBD in the asymmetric unit; both purified.

These are yes or no findings as the source states them, for the method shown.

B1: mouse plexin B2 RBD (Rho-GTPase-binding domain), as found in the crystal (domain or fragment, UniProt B2RXS4 1463-1565, looked up)
chain: EYAPLTVSVIVQDEGIDAIPVKVLNCDTISQVKEKIIDQVYRTQPCSCWPKPDSVVLEWRPGSTAQILSDLDLTSQREGRWKRINTLMHYNVRDGATLILSKV
notes: Plexin B2, mouse; Expressed as the intracellular region without the juxtamembrane region (residues 1274-1842); it degraded during crystallization and the crystal held only the RBD, built as residues 1463-1509 and 1510-1565; The range is that of the residues modelled in the structure; In the crystal two RBD chains form a domain-swapped dimer (swap between residues 1509 and 1510), which the authors …
Take B1: the binding entry is reported as “no binding”.
